log2 fold change data for 20 targets are collected here from the supplement of paper PMC10849652.

Protein sequences, listed by entry. Tags and fused reporters are not part of them. Lines headed by an entry give the natural chain unless they say otherwise; changes in a name come on top.
UniProt Q8IYS1: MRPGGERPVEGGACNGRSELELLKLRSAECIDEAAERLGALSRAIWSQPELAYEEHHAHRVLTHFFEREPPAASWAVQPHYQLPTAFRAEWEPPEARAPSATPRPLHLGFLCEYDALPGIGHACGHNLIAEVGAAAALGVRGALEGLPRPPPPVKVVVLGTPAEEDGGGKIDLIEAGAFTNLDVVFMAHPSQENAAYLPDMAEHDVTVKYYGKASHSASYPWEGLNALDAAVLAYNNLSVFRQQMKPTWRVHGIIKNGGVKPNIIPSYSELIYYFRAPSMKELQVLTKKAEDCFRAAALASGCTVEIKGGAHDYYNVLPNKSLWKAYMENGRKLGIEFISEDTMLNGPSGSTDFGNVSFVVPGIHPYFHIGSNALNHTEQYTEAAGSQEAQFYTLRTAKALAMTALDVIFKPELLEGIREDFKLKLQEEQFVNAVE
UniProt Q9NRY6: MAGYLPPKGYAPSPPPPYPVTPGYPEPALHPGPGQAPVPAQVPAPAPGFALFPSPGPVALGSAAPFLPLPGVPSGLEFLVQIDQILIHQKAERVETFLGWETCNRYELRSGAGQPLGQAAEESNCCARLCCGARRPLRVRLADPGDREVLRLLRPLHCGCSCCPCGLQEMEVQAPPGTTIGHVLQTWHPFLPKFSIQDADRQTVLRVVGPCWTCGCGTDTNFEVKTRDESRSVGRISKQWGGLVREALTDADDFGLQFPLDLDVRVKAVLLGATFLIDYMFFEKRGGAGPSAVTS
UniProt Q8NEY8: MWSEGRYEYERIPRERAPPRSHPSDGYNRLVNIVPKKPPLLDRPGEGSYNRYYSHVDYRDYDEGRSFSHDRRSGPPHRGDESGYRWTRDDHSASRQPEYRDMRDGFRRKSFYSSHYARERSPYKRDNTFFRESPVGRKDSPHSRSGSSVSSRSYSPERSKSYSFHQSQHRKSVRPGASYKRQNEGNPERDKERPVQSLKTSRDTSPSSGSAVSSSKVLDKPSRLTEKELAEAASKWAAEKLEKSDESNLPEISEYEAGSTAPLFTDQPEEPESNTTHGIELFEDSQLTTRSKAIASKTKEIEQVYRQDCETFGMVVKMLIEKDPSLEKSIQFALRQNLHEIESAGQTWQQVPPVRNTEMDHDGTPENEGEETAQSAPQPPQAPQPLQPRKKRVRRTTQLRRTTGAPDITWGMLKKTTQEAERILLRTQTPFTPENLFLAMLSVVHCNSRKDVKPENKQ
UniProt Q8IY17: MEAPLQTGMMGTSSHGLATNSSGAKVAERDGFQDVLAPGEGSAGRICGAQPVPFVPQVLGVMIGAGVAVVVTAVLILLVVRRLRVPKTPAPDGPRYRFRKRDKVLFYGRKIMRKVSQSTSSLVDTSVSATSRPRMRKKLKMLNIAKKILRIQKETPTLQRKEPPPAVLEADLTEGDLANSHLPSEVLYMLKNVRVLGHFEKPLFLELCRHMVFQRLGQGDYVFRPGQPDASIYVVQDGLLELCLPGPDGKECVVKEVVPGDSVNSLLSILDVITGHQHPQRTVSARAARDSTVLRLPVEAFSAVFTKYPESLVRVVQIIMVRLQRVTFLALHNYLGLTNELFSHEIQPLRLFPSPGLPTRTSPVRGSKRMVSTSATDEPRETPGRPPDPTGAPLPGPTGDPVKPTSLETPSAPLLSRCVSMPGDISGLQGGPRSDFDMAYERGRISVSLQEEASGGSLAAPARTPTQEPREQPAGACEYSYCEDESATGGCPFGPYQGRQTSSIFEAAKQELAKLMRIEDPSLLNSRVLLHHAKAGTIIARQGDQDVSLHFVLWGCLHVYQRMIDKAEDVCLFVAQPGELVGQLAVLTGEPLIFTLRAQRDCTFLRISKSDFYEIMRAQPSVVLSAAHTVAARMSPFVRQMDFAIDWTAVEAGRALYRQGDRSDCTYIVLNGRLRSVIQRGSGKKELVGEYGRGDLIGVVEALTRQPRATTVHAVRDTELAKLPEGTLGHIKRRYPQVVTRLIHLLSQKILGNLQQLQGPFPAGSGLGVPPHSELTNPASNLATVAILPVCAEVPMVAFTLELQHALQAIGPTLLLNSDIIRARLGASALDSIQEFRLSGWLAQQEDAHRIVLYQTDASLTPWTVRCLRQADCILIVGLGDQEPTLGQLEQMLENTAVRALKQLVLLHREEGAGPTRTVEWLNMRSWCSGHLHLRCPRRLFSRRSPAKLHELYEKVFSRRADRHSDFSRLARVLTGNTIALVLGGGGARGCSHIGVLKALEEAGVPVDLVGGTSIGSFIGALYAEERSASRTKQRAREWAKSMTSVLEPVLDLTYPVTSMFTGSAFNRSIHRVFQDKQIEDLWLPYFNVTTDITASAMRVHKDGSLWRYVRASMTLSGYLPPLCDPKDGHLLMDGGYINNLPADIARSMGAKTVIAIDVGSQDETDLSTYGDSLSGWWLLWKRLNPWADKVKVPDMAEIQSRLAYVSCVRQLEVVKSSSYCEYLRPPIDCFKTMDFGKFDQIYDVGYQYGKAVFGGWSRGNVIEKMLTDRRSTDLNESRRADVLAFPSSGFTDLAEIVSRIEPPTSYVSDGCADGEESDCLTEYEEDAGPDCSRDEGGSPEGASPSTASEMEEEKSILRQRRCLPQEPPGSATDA
UniProt Q9NUX5: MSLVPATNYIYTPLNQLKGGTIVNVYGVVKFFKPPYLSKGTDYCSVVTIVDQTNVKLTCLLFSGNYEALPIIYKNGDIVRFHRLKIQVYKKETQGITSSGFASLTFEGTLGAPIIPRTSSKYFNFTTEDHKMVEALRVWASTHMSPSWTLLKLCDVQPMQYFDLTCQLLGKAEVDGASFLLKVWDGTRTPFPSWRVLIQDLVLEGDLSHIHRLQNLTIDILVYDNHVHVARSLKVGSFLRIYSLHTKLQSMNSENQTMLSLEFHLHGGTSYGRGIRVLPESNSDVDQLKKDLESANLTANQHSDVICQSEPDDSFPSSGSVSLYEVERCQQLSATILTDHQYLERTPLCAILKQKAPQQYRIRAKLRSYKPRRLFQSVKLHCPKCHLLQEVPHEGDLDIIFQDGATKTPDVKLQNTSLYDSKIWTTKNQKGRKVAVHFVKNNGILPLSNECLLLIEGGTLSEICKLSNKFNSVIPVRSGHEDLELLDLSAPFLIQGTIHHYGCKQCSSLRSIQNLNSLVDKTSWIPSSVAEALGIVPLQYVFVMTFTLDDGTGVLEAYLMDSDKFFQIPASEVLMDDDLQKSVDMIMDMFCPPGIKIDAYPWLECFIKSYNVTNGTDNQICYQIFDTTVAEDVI
UniProt Q9H307: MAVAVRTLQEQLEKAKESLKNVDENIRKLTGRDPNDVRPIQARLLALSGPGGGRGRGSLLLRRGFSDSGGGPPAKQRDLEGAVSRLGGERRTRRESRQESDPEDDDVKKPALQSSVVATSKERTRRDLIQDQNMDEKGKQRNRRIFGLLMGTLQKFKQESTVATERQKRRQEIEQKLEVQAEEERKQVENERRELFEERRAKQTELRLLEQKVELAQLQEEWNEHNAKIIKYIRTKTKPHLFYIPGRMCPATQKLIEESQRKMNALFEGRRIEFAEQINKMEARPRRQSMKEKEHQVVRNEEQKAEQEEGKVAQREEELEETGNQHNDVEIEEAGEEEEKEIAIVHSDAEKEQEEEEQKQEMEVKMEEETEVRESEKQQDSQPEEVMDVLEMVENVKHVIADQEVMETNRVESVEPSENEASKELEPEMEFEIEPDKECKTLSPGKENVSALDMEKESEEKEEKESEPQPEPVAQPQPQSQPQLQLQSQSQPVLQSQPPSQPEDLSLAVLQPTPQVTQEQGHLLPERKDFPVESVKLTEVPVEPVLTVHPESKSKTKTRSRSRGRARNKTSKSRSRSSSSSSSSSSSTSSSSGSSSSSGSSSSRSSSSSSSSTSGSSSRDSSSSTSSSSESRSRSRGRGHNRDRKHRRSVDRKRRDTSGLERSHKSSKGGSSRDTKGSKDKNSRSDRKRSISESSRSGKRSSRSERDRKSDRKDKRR
UniProt Q9NR33: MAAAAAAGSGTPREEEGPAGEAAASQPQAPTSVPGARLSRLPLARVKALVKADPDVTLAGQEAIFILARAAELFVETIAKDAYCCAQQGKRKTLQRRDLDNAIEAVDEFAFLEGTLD
UniProt Q8TD55: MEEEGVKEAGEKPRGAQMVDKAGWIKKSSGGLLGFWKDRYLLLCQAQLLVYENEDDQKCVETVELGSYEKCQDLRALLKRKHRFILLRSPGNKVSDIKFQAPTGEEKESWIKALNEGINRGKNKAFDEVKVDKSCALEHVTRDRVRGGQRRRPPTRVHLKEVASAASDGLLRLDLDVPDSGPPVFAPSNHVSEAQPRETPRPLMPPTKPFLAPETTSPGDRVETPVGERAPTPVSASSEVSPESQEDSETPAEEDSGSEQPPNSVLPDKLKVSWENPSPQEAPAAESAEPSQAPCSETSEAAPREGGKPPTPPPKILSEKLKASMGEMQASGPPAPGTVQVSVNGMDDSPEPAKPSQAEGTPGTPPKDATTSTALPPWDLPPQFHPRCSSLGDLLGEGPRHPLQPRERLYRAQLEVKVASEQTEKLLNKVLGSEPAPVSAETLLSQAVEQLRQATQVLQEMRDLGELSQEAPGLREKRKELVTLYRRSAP
UniProt P53350, whole entry, looked up: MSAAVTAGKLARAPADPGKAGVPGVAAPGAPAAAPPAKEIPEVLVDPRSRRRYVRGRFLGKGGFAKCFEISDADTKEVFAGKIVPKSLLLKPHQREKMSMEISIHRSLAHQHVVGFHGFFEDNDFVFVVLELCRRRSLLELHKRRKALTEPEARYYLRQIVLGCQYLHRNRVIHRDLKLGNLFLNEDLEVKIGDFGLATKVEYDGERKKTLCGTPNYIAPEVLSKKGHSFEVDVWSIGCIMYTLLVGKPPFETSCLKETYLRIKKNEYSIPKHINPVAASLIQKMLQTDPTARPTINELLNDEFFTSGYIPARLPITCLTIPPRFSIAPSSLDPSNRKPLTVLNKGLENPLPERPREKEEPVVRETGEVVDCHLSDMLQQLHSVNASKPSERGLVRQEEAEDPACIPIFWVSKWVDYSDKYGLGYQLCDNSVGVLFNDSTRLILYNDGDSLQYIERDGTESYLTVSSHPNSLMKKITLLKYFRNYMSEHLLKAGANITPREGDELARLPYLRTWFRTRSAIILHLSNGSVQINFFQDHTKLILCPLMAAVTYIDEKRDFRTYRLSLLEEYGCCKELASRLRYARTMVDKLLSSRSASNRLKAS
UniProt Q9Y6A1: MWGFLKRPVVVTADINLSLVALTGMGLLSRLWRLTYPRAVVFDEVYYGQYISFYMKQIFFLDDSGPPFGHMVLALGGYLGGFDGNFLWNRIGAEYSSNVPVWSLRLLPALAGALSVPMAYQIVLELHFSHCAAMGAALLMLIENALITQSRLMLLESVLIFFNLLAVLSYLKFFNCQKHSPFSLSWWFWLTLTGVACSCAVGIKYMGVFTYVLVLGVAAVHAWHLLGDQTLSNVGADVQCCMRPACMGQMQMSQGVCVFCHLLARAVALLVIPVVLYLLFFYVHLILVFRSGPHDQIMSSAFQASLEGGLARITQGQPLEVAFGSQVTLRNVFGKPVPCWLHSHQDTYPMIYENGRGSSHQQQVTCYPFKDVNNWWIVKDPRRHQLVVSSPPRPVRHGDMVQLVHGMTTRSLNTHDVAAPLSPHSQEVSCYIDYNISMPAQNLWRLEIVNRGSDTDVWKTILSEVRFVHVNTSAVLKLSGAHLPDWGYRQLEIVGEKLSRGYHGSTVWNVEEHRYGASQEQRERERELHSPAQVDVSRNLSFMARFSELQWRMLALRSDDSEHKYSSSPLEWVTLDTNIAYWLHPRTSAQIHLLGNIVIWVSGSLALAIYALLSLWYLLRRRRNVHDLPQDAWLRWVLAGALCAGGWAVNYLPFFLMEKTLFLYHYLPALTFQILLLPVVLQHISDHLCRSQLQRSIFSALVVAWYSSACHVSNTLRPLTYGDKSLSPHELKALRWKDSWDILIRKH
UniProt Q92871: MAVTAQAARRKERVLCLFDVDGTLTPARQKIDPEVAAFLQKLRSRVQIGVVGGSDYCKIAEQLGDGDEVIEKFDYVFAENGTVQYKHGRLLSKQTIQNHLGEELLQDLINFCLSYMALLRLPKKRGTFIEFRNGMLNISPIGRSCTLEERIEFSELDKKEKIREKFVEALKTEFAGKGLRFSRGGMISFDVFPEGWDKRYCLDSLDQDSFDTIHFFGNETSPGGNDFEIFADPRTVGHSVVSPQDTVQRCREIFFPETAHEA
POLG, A0A3B3IS91, UniProt A0A3B3IS91, whole entry, looked up: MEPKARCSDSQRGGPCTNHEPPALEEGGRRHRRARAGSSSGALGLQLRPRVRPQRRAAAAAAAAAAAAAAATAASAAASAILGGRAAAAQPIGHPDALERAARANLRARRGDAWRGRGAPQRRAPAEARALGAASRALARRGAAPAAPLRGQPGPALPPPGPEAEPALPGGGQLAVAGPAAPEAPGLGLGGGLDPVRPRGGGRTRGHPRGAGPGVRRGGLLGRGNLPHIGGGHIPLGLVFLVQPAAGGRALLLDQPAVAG
UniProt Q15126: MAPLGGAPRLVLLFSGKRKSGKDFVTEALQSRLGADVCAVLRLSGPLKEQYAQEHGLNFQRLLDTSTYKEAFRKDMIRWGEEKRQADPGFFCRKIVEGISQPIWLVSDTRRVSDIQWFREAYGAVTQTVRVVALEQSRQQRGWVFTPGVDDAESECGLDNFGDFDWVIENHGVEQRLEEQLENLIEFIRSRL

The list shows a part of the results.

Compound in this assay: CNC(=O)C1=CC=CC=C1NC2=NC(=NC=C2Cl)NC3=C(C=C(C=C3)N4CCOCC4)OC
The assay can be described thus: log2 fold change, soluble protein after heating vs DMSO (PISA); higher = thermal stabilisation; K562 cells, 10 uM, 30 min; active = over 0.2 and 3.5 SD of the protein, either way, in both replicates (recomputed). An outline of the steps:
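K562 cells (2×10^6 cells/mL) were treated with 10 μM compound for 30 min, and aliquots were heated for 3 min over 48°C-58°C. Pooled aliquots were extracted in PBS with 0.5% NP-40 at 4°C, and the supernatant after 21,000xg for 90 min was measured by TMTpro 16plex LC-MS/MS with channel sums equalised. Reported thermal stability, relative to control samples and from duplicates, is a log2 fold change.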
Turning to PM20D2 (UniProt Q8IYS1), the log2 fold change is inactive: -0.016.

Take PLSCR3 (UniProt Q9NRY6): the log2 fold change is inactive: -0.093.

PPHLN1 (UniProt Q8NEY8): the log2 fold change is inactive: 0.014.

Turning to PNPLA6 (UniProt Q8IY17), the log2 fold change was inactive: 0.223.

Turning to POM121C (UniProt A8CG34), the log2 fold change is inactive: 0.01.

As for POT1 (UniProt Q9NUX5), the log2 fold change was inactive: 0.013.

Regarding PNN (UniProt Q9H307), the log2 fold change was inactive: -0.067.

On to POLE4 (UniProt Q9NR33), for which the log2 fold change was inactive: 0.023.

Regarding POLR2J (UniProt P52435), the log2 fold change is inactive: 0.017.

POLR1D (UniProt P0DPB5): the log2 fold change was inactive: -0.067.

As for POLR2E (UniProt P19388), the log2 fold change is inactive: -0.076.

For PLEKHO2 (UniProt Q8TD55), the log2 fold change was inactive: -0.117.

On to PLK1 (UniProt P53350), for which the log2 fold change was active: -2.06.

Turning to POMT1 (UniProt Q9Y6A1), the log2 fold change is inactive: 0.064.

Consider PORCN (UniProt Q9H237), for which the log2 fold change was inactive: 0.353.

As to POLB (UniProt P06746), the log2 fold change was inactive: 0.062.

Consider POLR3D (UniProt P05423), for which the log2 fold change was inactive: -0.074.

Regarding PMM1 (UniProt Q92871), the log2 fold change was active: -0.315.

With POLG, A0A3B3IS91, the log2 fold change is inactive: 0.065.

PMVK (UniProt Q15126): the log2 fold change is inactive: -0.051.
